# Assay results as given in PubChem BioAssay AID1259354 (Paczesny and Yang Labs, IUPUI and University of Michigan, 2018).
# Sequences of proteins named here, by UniProt entry; tags and fusion partners are left off. A change or cut given only in a name is not applied to a line headed by its entry.
# UniProt Q01638: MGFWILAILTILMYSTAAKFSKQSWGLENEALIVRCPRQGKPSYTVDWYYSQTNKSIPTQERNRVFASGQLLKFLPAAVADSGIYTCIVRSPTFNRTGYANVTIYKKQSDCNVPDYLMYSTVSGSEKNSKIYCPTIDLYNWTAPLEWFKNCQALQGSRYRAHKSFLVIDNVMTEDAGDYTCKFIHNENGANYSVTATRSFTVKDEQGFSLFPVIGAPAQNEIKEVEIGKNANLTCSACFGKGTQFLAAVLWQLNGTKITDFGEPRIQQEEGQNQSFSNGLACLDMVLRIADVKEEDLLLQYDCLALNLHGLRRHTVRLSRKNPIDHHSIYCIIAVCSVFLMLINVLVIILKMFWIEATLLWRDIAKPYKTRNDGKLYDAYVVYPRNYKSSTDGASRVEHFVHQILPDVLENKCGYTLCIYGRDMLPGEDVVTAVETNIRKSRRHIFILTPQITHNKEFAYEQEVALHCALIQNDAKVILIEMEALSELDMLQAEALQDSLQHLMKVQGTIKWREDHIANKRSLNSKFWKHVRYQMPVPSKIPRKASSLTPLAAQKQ
# In all, about 78,000 compounds went through this assay and about 1,800 (2.3%) were called active. The shares of active, inactive and inconclusive entries below differ from those in the screen. Cut-off read from the data, not from the text of the source: active = inhibition above about 30%; inconclusive = mostly about 10% to 28%; inactive = weaker than that.
# Biological target: Interleukin-1 receptor-like 1 (Homo sapiens) (UniProt Q01638)
# Assay: blocks human ST2 binding to IL-33, primary screen, biochemical, AlphaLISA (AID 1259354)
# Details: AlphaLISA ST2-Fc/biotin-IL-33 interaction, 1 h; at 17 µM, hits give high values
row,Structure (SMILES),inhibition
1,CC1CN(c2ccc([N+](=O)[O-])cc2Cl)CCN1S(=O)(=O)Cc1ccccc1 (centres undefined),inconclusive: 11%
2,Cc1ccc2c(C)c(C(=O)NCCN(C)S(C)(=O)=O)oc2c1,inconclusive: 21%
3,O=[N+]([O-])c1ccccc1S(=O)(=O)NCCSCc1ccccc1,inconclusive: 17%
4,COCCC1CN(C(=O)c2cc(C)nc(C)n2)CCO1 (centres undefined),inconclusive: 15%
5,CC(O)c1nc2ccccc2n1Cc1ccccc1Cl (centres undefined),inconclusive: 12%
6,Cc1cc2nc(CSCC(=O)Nc3ccccc3Cl)cc(=O)n2o1,inconclusive: 23%
7,CCOC(=O)Cn1c(=O)n(-c2ccc(F)cc2)c2nc(C)nc(C(N)=O)c21,inactive
8,O=C(NC[C@H]1O[C@@H](CC(=O)N2CCc3ccccc32)[C@H](O)[C@@H]1O)Nc1cccc(F)c1,inconclusive: 12%
9,COc1ccc(C2SCCN2S(=O)(=O)c2ccc(C)cc2)cc1[N+](=O)[O-] (centres undefined),inactive
10,Cc1nn(C)c(Cl)c1S(=O)(=O)N1CC[C@@H]2CC[C@H](C1)N2C,inconclusive: 14%
11,CCn1nc(C(=O)N2CCCCCC2)c2c1CCC(N1CCOc3ccc(Cl)cc3C1)C2 (centres undefined),inconclusive: 26%
12,Cc1ccc(NC2=C(C(=O)c3ccccc3)NS(=O)(=O)c3ccccc32)cc1,inconclusive: 28%
13,COC(=O)c1cccc(N2COc3ccc4c5c(c(=O)oc4c3C2)CCC5)c1,inconclusive: 12%
14,COc1cccc(N(CC(=O)Nc2cccc([N+](=O)[O-])c2)S(=O)(=O)c2ccccc2)c1,inconclusive: 16%
15,Cc1ccc(NS(=O)(=O)c2c(C)[nH]c(=O)[nH]c2=O)c(Cl)c1,inactive
16,CN1CCN(C(=O)CSc2c3c(nc4ccccc24)CCC3)CC1,inactive
17,Cc1nc(S(=O)(=O)NCc2ccccc2Cl)c(C#N)c(C)c1Cl,inconclusive: 21%
18,CCOC(=O)c1[nH]c2ccc(OC)cc2c1NC(=O)CNc1nccs1,inconclusive: 13%
19,C=CCN(Cc1ccccc1OC)C(=O)c1csc(C)n1,inactive
20,COc1ccc2cc(C3CN(C(=O)c4cc(=O)c(OC)c[nH]4)CCO3)ccc2c1 (centres undefined),inconclusive: 11%
21,CCCc1nc(NC2CCNCC2)c2cnn(C)c2n1,inconclusive: 13%
22,CC(C)CN(Cc1ccsc1)C(=O)c1ccc2c(c1)ncn2CCO,inactive
23,O=C(c1cccn2c(=O)c3sccc3nc12)N1CCC2(CC1)OCCO2,inactive
24,O=C(CCn1ccccc1=O)N1CCOC(C(F)(F)F)C1 (centres undefined),inconclusive: 11%

row,Structure (SMILES),inhibition
1,Cc1ccc(F)cc1-c1ccc(SCC(N)=O)cc1,inactive
2,O=C(O)CC1COCCN1C(=O)CC12CC3CC(CC(C3)C1)C2 (centres undefined),inconclusive: 19%
3,CN(C)CCN(Cc1ccccc1)Cc1c(F)cccc1Cl,inactive
4,CC1=C(C(=O)Nc2ccc(Cl)cc2)C(c2cccc([N+](=O)[O-])c2)n2ncnc2N1 (centres undefined),inactive
5,O=C(CN1C(=O)CC(c2ccccc2)=Nc2ccccc21)Nc1ccccc1Cl,inactive
6,O=C(Nc1nnc(-c2cccnc2)s1)c1ccc(Cl)c(Cl)c1,inconclusive: 11%
7,Cc1ccc(Nc2nc3c(C)cccn3c(=O)c2C=Nc2cccc(Cl)c2)cc1,inconclusive: 29%
8,COc1ccc(/C=C2\N=C(c3cccc([N+](=O)[O-])c3)OC2=O)cc1,inactive
9,COc1ccc(-c2csc(Nc3ncccc3C)n2)cc1C,inconclusive: 19%
10,COc1cc2c(cc1OC)CN(Cc1ccco1)CC2,inactive
11,CC(C)CN1CCCC1c1ccc(C(=O)Nc2cnn(C)n2)s1 (centres undefined),inactive
12,O=C(c1cccn2c(=O)c3sccc3nc12)N1CCOCC1,inactive
13,O=C(c1cccnc1SC/C=C/c1ccccc1)N1CC[C@H](O)C1,inconclusive: 11%
14,Cc1ccc(-n2c(=O)c3sccc3n(Cc3cc(=O)n4ccccc4n3)c2=O)cc1F,inconclusive: 17%
15,C#CCCCCCCCCCCCC(CC(O)CO)OC(C)=O (centres undefined),inactive
16,CN(C)c1ccc(-c2nnc([C@H]3CCN(Cc4ccncc4)C3)o2)cc1,inconclusive: 12%
17,COCCNC(=O)C(c1cccc(C)c1)N(C)C (centres undefined),inconclusive: 18%
18,COc1ccc(OC)c(C2CC(c3ccc(C)cc3)=NN2C(=O)CCC(=O)O)c1 (centres undefined),inactive
19,COC(=O)CCN1CCOC(Cc2cccc3ccccc23)C1 (centres undefined),inactive
20,N#Cc1nc(COc2ccc(Br)cc2)oc1NCc1ccco1,inconclusive: 20%
21,O=[N+]([O-])c1nn(-c2ccccc2)n(O)c1=NCc1ccc2c(c1)OCO2,inconclusive: 17%
22,CCOc1ccccc1-c1cnc(N)c(C)c1,inconclusive: 18%
23,Cn1c(=O)c2c(nc(N3CCOCC3)n2Cc2cccc(C(F)(F)F)c2)n(C)c1=O,inconclusive: 19%
24,Cc1ccsc1CNc1ccc(C(=O)N2CCCC(Cn3ccnc3C)C2)cc1 (centres undefined),inconclusive: 13%

row,Structure (SMILES),inhibition
1,CCCSC1=C(C#N)C(c2ccco2)C(C(=O)Nc2ccccc2OC)=C(C)N1 (centres undefined),inactive
2,O=C(CCn1c(=O)c2sccc2n(Cc2ccccc2)c1=O)NCc1ccccc1,inactive
3,Cc1ccc(C)c(N2CCN(Cc3ccc(-c4ccccc4[N+](=O)[O-])o3)CC2)c1,active: 38%
4,Cc1cc2c(cc1C)NC(CC(=O)Nc1ccc(N3CCOCC3)cc1)C(=O)N2 (centres undefined),inconclusive: 28%
5,O=C1CC(Sc2ccc(Br)cc2)C(=O)N1c1ccccc1 (centres undefined),inactive
6,COc1ccc(NC(=O)c2cc(C3CC3)on2)cc1,inconclusive: 10%
7,CC(=O)Nc1ccc(-c2ccc(=O)n3c2[C@@H]2C[C@@H](CN(C(=O)c4ccc(F)cc4)C2)C3)cc1,inconclusive: 21%
8,COc1ccc(Nc2cc(C)nc(Nc3ccc(NC(=O)C(C)(C)C)cc3)n2)cc1,inconclusive: 12%
9,CCn1nc(C)cc1C(=O)N1CCC2(CCCN(Cc3cccc(F)c3F)C2)C1 (centres undefined),inactive
10,CN(C)c1nc2c(c(N(C)C)n1)CCN(C(=O)c1ncccc1O)C2,inconclusive: 16%
11,O=C(Nc1cc(Br)ccc1O)c1cc(C2CC2)on1,inconclusive: 10%
12,Cc1cccc(CSC2=NCCN2C(=O)c2ccc(S(=O)(=O)N3CCOCC3)cc2)c1,inactive
13,CN1CC2(CCN(C(=O)c3cc(-c4ccccc4)nc4ccccc34)C2)OC1=O (centres undefined),inconclusive: 11%
14,Cc1occc1C(=O)Nc1ccccc1C(N)=O,inactive
15,CC(C)c1ccc(C2Nc3ccccc3NC3=C2C(=O)CC(c2cccs2)C3)cc1 (centres undefined),inconclusive: 15%
16,CN(C)c1ccc(C2C3=C(CCCC3=O)Nc3nc(SCc4ccccc4)[nH]c(=O)c32)cc1 (centres undefined),inactive
17,Cc1cc(C)n2ncc(CN(C)CC(C)N3CCOCC3)c2n1 (centres undefined),inconclusive: 13%
18,Cc1cc(C(=O)NC(CC(C)C)c2ncnn2C)nc(C)n1 (centres undefined),inconclusive: 15%
19,CCC(=O)NCCSc1c(C)[nH]c2ccccc12,inconclusive: 10%
20,CC(C)N(C(=O)c1ccc(C(=O)NCc2ccc(S(N)(=O)=O)cc2)cc1)C(C)C,inactive
21,CC1(C(=O)O)CCC(C(=O)Nc2ccc(F)cc2)C1(C)C (centres undefined),inconclusive: 25%
22,Cc1cc2c(N)cccc2nn1,inconclusive: 14%
23,Cn1c(=NC(=O)c2ccc(S(=O)(=O)N3CCCCC3)cc2)sc2cc(F)ccc21,inactive
24,COc1ccccc1-n1c(O)c(C=Nc2cccc(C)c2)c2ccccc2c1=O,inconclusive: 23%

# Reformatted: entries from further up.
row | Structure (SMILES) | inhibition
14 | Cc1occc1C(=O)Nc1ccccc1C(N)=O | inactive
15 | CC(C)c1ccc(C2Nc3ccccc3NC3=C2C(=O)CC(c2cccs2)C3)cc1 (centres undefined) | inconclusive: 15%
16 | CN(C)c1ccc(C2C3=C(CCCC3=O)Nc3nc(SCc4ccccc4)[nH]c(=O)c32)cc1 (centres undefined) | inactive
17 | Cc1cc(C)n2ncc(CN(C)CC(C)N3CCOCC3)c2n1 (centres undefined) | inconclusive: 13%
18 | Cc1cc(C(=O)NC(CC(C)C)c2ncnn2C)nc(C)n1 (centres undefined) | inconclusive: 15%
19 | CCC(=O)NCCSc1c(C)[nH]c2ccccc12 | inconclusive: 10%

# Next records

row,Structure (SMILES),inhibition
1,COCCN(CCOC)c1ncnc2c1cnn2-c1cccc(C)c1,inactive
2,Cc1cccc(Cc2c(C)nc3c(C(=O)N(C)Cc4ccccc4)c[nH]n3c2=O)c1,inconclusive: 19%
3,CCCn1nccc1C(=O)N1C[C@H]2C[C@H](O)[C@H](O)C[C@H]2C1,inactive
4,COc1ccc(/C=C/C(=O)O[C@@H]2[C@@H](O[C@@H]3O[C@H](CO)[C@@H](O)[C@H](O)[C@H]3O)[C@@H](O)[C@H](O[C@H]3C4C=CO[C@@H](O[C@@H]5O[C@H](CO)[C@@H](O)[C@H](O)[C@H]5O)C4[C@@]4(CO)O[C@@H]34)O[C@H]2C)cc1 (some centres undefined),inactive
5,Cc1cccc(OCC(=O)Nc2cccc([N+](=O)[O-])c2)c1C,inconclusive: 10%
6,O=[N+]([O-])c1cc(C=Nc2ccc3c(c2)OCCO3)ccc1Br,inactive
7,O=C(CN1CCN(S(=O)(=O)N2CCCC2)CC1)NCc1ccccc1F,inconclusive: 17%
8,Cc1ccc(-n2nnnc2SCC(=O)Nc2ccc3c(c2)COC3=O)cc1C,inconclusive: 10%
9,O=C(NCCCN1CCOCC1)c1ccc([N+](=O)[O-])cc1,inconclusive: 21%
10,Cc1[nH]c2ccccc2c1C=Nc1c(-c2ccco2)nc2ccccn12,inconclusive: 24%
11,COC(=O)c1ccn(CC(=O)Nc2cc(-c3ccccc3)nn2C)n1,inconclusive: 12%
12,Fc1ccccc1N1CCC(NCCNc2cccnc2)CC1,inconclusive: 15%
13,CC1N=C2c3ccccc3N=C(SCc3ccc(F)cc3)N2C1=O (centres undefined),inconclusive: 10%
14,C=CC(N)CCC(=O)O (centres undefined),inconclusive: 10%
15,CC1CCN(Cc2nnnn2CC(=O)N2CCCC(C(=O)c3cccnc3)C2)CC1 (centres undefined),inconclusive: 11%
16,COc1ccccc1N1CCN(Cc2cc(OC)c(O)c([N+](=O)[O-])c2)CC1,inactive
17,CNC(=O)[C@@H]1C[C@H](N)CN1C(=O)c1cc2ccc(OC)cc2n1C,inconclusive: 20%
18,O=C(CCS(=O)(=O)c1cccc2nsnc12)NCCc1ccc(Cl)cc1,inactive
19,Cc1ccc(NCN2C(=O)C(=O)c3ccccc32)cc1,inconclusive: 13%
20,CN1[C@@H](CCC(=O)NCc2cccs2)CNC(=O)[C@@H]2[C@H]1CCN2CC(C)(C)C,inconclusive: 11%
21,COCC(Nc1ncnc2sc3c(c12)CCNC3)c1ccnn1C (centres undefined),inconclusive: 11%
22,Cc1cc(CC(=O)N(Cc2ccccc2)Cc2scnc2C)on1,inconclusive: 11%
